Source: PubChem BioAssay AID218 (DTP/NCI, 2004)
The list is a part of this screen's results and no random one: it covers a few groups of compounds. Other doses and runs of a compound may be missing. T/C gives the treated animals as a percentage of the vehicle group. Some entries show no survivor count and are marked so; the dose need not have been tolerated. Schedules are NCI's codes, read here as Q, the interval in days (D) or hours (H), X, the number of doses.

Test system: C57BL/6 mice, Adenocarcinoma 755 sc, tumor weight T/C
Experiment: NCI In Vivo Anticancer Drug Screen. Data for tumor model Adenocarcinoma 755 (subcutaneous) in C57BL/6 mice
Details: T/C endpoint: mean tumor weight, schedule: Q01DX011 (ip), vehicle: saline, evaluation day not shown, higher T/C = larger tumour
Method: The antitumor activity of compounds was measured in mice bearing transplantable tumors. Survival or tumor size were measured and the results are expressed as the measurement made in the treated group (T) divided by the measurement made in the vehicle treated control group (C). The tumor model used in this assay is Adenocarcinoma 755 (subcutaneous) in C57BL/6 mice

## CCCCOc1ccc(N(CCCl)CCCl)cc1
dose: 10.0 mg/kg/injection
  T/C: 56 % of control [survivor count not shown]
dose: 20.0 mg/kg/injection
  T/C: 31 % of control [survivor count not shown]
dose: 40.0 mg/kg/injection
  T/C: 8 % of control [survivor count not shown]

## O=P(Cl)(Cl)N(CCF)CCF
dose: 0.16 mg/kg/injection
  T/C: 25 % of control [survivor count not shown]
dose: 0.31 mg/kg/injection
  T/C: 63 % of control [survivor count not shown]
dose: 0.63 mg/kg/injection
  T/C: 49 % of control [survivor count not shown]
dose: 1.25 mg/kg/injection
  T/C: 55 % of control [survivor count not shown]
dose: 19.0 micrograms/kg/injection
  T/C: 56 % of control [survivor count not shown]
dose: 39.0 micrograms/kg/injection
  T/C: 94 % of control [survivor count not shown]
dose: 78.0 micrograms/kg/injection
  T/C: 55 % of control [survivor count not shown]
dose: 156.0 micrograms/kg/injection
  T/C: 61 % of control [survivor count not shown]
